The target in one test is human GMCSF (human) (UniProt P04141). Description: Biacore SPR, GH6L IgG1 captured on GMCSF amine-coupled to a CM5 chip.
Test [1] concerns the target human IL6 (human) (UniProt P05231). In words: Biacore SPR, GH6L IgG1 captured on immobilised GMCSF or on anti-light chain antibody, IL6 as analyte.
Test [2] has the same target. Description: Biacore SPR, Fab captured by anti-light chain antibody, antigen as analyte. Background: SPR reads the build-up and loss of mass on a sensor chip optically.

Sequences of proteins named here, by UniProt entry; tags and fusion partners are left off. Residues count along the entry.
UniProt P04141, residues 18-144: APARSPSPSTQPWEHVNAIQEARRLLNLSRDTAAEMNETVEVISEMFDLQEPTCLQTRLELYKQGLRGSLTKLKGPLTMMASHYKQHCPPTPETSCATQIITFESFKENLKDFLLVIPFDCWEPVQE
UniProt P05231, residues 30-212: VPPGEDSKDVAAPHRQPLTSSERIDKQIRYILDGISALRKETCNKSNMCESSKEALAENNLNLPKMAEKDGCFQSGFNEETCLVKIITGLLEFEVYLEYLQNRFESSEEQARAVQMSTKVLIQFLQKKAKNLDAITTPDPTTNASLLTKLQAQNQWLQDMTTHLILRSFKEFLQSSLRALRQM

Substitutions are numbered along the chain they refer to. Results are given in words; binding and its absence hold for the method and conditions named. Some results given as binding are weak or reduced against the parent protein; the word gives no strength.

This note sets out measurements from patent US20140206846A1.

B1: GH6L (bispecific antibody, human IgG1, V domains shown)
VH: WVQLVESGGGLVQPGGSLRLSCAAKGALFSTYAMSWIRQAPGKGLEWIGQISGSGGSTVYNYNVLGRFTISRDNSKNTLYLQMNSLRAEDTAVYYCARDSGYFDIWGQGTLVTVSS
VL: ATQRTQSPSSLSASVGDRVTITCRALWHISSYLAWYQQKPGKAPKLLIYAASWLYWDVPSRFSGSGSGTDFTLTISSLQPEDFATYYCQQYSGLPYTFGQGTKVEIK
For B1, the binding result with human GMCSF (human) and with human IL6 (human) [1] was “binds” throughout.

B2: VH6L (bispecific antibody, V domains shown)
VH: B1 VH with W1Y, V2Y, K25D, A27F, T31G, S100T, I105H
VL: B1 VL with A1N, T2I, R4K, W53H, Y55H, W56Y, D57G
B2: the binding entry in the test with human IL6 (human) [2] is listed as “binds”.
